Source: paper PMC3197609
Results are given in words; binding and its absence hold for the method and conditions named. Where a sequence is shown, tags or fusion partners need not be part of it.

Assays:
Test in all cases: two-hybrid; […] system; bait as GAL4 DNA binding domain fusion in pAS2, prey as GAL4 activation domain fusion in pACT2, yeast PJ649A cells; interaction shown by growth on plates lacking adenine, or histidine and adenine
[1] = target: T1, DRB2 (yeast two-hybrid fusion) (Arabidopsis) (UniProt Q9SKN2)
T1 sequence: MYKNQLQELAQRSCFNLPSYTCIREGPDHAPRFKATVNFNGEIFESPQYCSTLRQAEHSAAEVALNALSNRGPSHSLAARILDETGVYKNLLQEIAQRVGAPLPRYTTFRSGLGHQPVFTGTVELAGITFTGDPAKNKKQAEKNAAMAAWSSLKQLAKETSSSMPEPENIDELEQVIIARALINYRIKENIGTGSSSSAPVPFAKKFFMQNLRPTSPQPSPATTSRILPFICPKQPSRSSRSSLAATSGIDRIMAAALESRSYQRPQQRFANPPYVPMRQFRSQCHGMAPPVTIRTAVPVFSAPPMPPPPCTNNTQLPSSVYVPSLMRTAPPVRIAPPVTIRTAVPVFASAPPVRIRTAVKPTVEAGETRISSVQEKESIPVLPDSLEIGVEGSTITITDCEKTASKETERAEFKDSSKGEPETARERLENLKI

[2] = target: T2, DRB3 (yeast two-hybrid fusion) (Arabidopsis) (UniProt Q9LJF5)
T2 sequence: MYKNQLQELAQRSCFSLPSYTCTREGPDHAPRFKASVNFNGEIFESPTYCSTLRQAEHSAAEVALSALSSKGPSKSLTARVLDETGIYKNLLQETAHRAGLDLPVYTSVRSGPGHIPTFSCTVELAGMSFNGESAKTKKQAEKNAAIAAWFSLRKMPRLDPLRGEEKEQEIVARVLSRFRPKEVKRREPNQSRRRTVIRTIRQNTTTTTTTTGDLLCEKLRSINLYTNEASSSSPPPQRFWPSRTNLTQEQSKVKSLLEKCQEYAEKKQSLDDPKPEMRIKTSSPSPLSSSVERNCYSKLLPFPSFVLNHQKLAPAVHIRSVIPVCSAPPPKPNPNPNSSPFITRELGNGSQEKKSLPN

[3] = target: T3, DRB5 (yeast two-hybrid fusion) (Arabidopsis) (UniProt Q8GY79)
T3 sequence: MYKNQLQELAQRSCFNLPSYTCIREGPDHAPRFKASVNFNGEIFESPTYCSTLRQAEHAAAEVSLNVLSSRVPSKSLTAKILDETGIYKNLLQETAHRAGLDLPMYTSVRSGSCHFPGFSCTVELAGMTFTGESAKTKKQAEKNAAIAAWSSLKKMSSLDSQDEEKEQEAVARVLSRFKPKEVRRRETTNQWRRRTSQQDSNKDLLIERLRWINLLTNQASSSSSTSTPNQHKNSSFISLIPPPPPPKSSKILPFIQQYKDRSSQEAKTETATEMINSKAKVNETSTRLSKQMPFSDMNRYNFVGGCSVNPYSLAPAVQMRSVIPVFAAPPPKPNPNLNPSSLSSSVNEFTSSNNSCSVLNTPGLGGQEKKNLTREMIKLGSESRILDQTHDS

Measured: binding

βC1 protein of TYLCCNB (yeast two-hybrid fusion)
no binding: [1] | [2] | [3]
